According to PubChem BioAssay AID1487 (National Center for Advancing Translational Sciences (NCATS), 2009):
The list shows a part of the results. Further columns of the screen follow, without active or inactive calls. Most of these compounds were active or inconclusive in the main read-out, so they are no random draw. Words in brackets tell the shape of the fitted curve; partial curves, single points and poor fits give uncertain potencies.

Test: qHTS Assay for Modulators of Lamin A Splicing
Details: HeLa LMNA splicing GFP/RFP minigene ratio, 48 h
Outline: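 S3 HeLa stable clones carrying a lamin A-EGFP splicing minigene plus DsRed2 were seeded at 600 cells/well in Opti-MEM with 2% FBS, pin-dosed and incubated 48 h at 37°C. Acumen cytometry (488 nm) gave the GFP/RFP total-intensity ratio.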

[1] = measured here: RFP viability control channel
[2] = measured here: GFP splicing reporter channel

Compound | AC50 [1] | AC50 [2]
C=CCNc1ncnc2ccc(Br)cc12 | 11.2 µM [rising, partial curve] | –
O=C(Nc1ccc(S(=O)(=O)NCCc2ccccc2)cc1)c1ccco1 | 31.6 µM [rising, single point] | –
Cc1ccc(C(=O)CC2(O)C(=O)N(Cc3ccccc3Cl)c3ccccc32)o1 (stereo not given) | 20 µM [rising, single point] | –
CN1CCN(C(=S)Nc2cccc(C(F)(F)F)c2)CC1 | 10 µM [rising, single point] | –
C=C(C)COc1ccc(-c2[nH]ncc2Oc2ccccc2OC)c(O)c1 | 8.91 µM [rising, partial curve, poor fit] | 10 µM [rising, partial curve, poor fit]
O=C(Nc1ccccc1Cl)c1cc(S(=O)(=O)N2CCCC(C(=O)O)C2)ccc1F (stereo not given) | – | 35.5 µM [rising, single point]
CC12CCC(C(=O)Nc3cc(F)ccc3F)(CC1=O)C2(C)C (stereo not given) | 2.51 µM [rising, partial curve, poor fit] | –
COc1ccc(N(CC(=O)N2c3ccccc3CC2C)S(=O)(=O)c2c(C)noc2C)cc1 (stereo not given) | 22.4 µM [rising, single point] | –
O=c1c2c(nc3c(-c4cccc5ccccc45)c[nH]n13)CCC2 | 35.5 µM [rising, single point] | –
CCOc1ccc(C(=O)NCCS(=O)(=O)N2CCN(c3cccc(Cl)c3)CC2)cc1 | 0.501 µM [falling, full curve, poor fit] | –
O=C(NCCc1ccccc1)c1cc(-c2ccc3c(c2)OCO3)on1 | 2.82 µM [falling, partial curve, poor fit] | –
CCOC(=O)N1CCc2c(sc(NCc3ccc(OC)c(Br)c3)c2C(=O)Nc2cc(OC)ccc2OC)C1 | 0.0891 µM [falling, full curve, poor fit] | –
CCn1c(CSCc2ccc(F)cc2)nnc1SCC(=O)N1CCN(c2ccccc2)CC1 | 31.6 µM [rising, single point] | 35.5 µM [rising, single point]
CCc1nc(SCC(=O)NCC2CCCO2)c2oc3ccccc3c2n1 (stereo not given) | 10 µM [rising, partial curve] | 3.55 µM [rising, full curve]
O=C(NC(=S)Nc1ccccc1N1CCCC1)c1ccc(-c2cccc([N+](=O)[O-])c2)o1 | 15.8 µM [falling, single point] | –
COc1ccc2[nH]cc(C3N4CC5(C)CN3CC(C)(C4)C5=O)c2c1 (stereo not given) | 1.78 µM [falling, partial curve, poor fit] | 3.98 µM [falling, single point]

Copied from the list.
`C=C(C)COc1ccc(-c2[nH]ncc2Oc2ccccc2OC)c(O)c1` | AC50 [1]: 8.91 µM [rising, partial curve, poor fit]
`O=c1c2c(nc3c(-c4cccc5ccccc45)c[nH]n13)CCC2` | AC50 [1]: 35.5 µM [rising, single point]
